# Results published in patent publication US20030153623A1, “Solid preparation containing sparingly soluble NSAIDs” (Yamanouchi Pharmaceutical Co., Ltd., priority 1998, published 2003).
# Assay: Dissolution test, puddle method, first solution pH 1.2, various chemicals (Test Example 5)
# Type: physicochemical
# Details: raw material of the chemical; dissolved for 5 minutes; first solution (pH 1.2) 500 ml; 50 rpm; a dose of each chemical
# Description: Samples 8-1 and 8-9, and raw materials of various chemicals as the control, were examined by the puddle method in an dissolution test according to the Japanese Pharmacopoeia, and the amount of ibuprofen (μg/ml) dissolved for 5 minutes in the test was determined. The test solution used was the first solution (pH 1.2) in a disintegration test in the Japanese Pharmacopoeia, the amount of the dissolution medium was 500 ml, and the number of puddle revolutions was 50 rpm. Each sample contains a dose of each chemical.
smiles,measurement,value
COc1ccc2cc([C@H](C)C(=O)O)ccc2c1 [Naproxen],"Dissolved amount, Control",5.92 µg/mL
